Data: PubChem BioAssay AID2662 (National Center for Advancing Translational Sciences (NCATS), 2010)
Hit rate of the full screen: of about 290,000 compounds, about 110 (0.038%) were called active. The shares of active, inactive and inconclusive entries below differ from those in the screen. The call rests on the fitted dose curve; in most records, active means well fitted inhibition curve with a large enough effect in the polarisation, with a control signal flat (not every such curve was filed as active); inconclusive means small, poorly fitted or top-dose-only effect, or effect the other way, or a change in a side signal; inactive means no such curve, though single readings can be large or run the other way; the % refers to the polarisation. Potencies beside an inconclusive call are fits to weak or partial responses and may not hold up. “Side channel” marks fits to a control or component signal instead of the main read-out.

Chains of the proteins cited; added tags and fusions are not shown.
UniProt Q03164, whole entry, looked up: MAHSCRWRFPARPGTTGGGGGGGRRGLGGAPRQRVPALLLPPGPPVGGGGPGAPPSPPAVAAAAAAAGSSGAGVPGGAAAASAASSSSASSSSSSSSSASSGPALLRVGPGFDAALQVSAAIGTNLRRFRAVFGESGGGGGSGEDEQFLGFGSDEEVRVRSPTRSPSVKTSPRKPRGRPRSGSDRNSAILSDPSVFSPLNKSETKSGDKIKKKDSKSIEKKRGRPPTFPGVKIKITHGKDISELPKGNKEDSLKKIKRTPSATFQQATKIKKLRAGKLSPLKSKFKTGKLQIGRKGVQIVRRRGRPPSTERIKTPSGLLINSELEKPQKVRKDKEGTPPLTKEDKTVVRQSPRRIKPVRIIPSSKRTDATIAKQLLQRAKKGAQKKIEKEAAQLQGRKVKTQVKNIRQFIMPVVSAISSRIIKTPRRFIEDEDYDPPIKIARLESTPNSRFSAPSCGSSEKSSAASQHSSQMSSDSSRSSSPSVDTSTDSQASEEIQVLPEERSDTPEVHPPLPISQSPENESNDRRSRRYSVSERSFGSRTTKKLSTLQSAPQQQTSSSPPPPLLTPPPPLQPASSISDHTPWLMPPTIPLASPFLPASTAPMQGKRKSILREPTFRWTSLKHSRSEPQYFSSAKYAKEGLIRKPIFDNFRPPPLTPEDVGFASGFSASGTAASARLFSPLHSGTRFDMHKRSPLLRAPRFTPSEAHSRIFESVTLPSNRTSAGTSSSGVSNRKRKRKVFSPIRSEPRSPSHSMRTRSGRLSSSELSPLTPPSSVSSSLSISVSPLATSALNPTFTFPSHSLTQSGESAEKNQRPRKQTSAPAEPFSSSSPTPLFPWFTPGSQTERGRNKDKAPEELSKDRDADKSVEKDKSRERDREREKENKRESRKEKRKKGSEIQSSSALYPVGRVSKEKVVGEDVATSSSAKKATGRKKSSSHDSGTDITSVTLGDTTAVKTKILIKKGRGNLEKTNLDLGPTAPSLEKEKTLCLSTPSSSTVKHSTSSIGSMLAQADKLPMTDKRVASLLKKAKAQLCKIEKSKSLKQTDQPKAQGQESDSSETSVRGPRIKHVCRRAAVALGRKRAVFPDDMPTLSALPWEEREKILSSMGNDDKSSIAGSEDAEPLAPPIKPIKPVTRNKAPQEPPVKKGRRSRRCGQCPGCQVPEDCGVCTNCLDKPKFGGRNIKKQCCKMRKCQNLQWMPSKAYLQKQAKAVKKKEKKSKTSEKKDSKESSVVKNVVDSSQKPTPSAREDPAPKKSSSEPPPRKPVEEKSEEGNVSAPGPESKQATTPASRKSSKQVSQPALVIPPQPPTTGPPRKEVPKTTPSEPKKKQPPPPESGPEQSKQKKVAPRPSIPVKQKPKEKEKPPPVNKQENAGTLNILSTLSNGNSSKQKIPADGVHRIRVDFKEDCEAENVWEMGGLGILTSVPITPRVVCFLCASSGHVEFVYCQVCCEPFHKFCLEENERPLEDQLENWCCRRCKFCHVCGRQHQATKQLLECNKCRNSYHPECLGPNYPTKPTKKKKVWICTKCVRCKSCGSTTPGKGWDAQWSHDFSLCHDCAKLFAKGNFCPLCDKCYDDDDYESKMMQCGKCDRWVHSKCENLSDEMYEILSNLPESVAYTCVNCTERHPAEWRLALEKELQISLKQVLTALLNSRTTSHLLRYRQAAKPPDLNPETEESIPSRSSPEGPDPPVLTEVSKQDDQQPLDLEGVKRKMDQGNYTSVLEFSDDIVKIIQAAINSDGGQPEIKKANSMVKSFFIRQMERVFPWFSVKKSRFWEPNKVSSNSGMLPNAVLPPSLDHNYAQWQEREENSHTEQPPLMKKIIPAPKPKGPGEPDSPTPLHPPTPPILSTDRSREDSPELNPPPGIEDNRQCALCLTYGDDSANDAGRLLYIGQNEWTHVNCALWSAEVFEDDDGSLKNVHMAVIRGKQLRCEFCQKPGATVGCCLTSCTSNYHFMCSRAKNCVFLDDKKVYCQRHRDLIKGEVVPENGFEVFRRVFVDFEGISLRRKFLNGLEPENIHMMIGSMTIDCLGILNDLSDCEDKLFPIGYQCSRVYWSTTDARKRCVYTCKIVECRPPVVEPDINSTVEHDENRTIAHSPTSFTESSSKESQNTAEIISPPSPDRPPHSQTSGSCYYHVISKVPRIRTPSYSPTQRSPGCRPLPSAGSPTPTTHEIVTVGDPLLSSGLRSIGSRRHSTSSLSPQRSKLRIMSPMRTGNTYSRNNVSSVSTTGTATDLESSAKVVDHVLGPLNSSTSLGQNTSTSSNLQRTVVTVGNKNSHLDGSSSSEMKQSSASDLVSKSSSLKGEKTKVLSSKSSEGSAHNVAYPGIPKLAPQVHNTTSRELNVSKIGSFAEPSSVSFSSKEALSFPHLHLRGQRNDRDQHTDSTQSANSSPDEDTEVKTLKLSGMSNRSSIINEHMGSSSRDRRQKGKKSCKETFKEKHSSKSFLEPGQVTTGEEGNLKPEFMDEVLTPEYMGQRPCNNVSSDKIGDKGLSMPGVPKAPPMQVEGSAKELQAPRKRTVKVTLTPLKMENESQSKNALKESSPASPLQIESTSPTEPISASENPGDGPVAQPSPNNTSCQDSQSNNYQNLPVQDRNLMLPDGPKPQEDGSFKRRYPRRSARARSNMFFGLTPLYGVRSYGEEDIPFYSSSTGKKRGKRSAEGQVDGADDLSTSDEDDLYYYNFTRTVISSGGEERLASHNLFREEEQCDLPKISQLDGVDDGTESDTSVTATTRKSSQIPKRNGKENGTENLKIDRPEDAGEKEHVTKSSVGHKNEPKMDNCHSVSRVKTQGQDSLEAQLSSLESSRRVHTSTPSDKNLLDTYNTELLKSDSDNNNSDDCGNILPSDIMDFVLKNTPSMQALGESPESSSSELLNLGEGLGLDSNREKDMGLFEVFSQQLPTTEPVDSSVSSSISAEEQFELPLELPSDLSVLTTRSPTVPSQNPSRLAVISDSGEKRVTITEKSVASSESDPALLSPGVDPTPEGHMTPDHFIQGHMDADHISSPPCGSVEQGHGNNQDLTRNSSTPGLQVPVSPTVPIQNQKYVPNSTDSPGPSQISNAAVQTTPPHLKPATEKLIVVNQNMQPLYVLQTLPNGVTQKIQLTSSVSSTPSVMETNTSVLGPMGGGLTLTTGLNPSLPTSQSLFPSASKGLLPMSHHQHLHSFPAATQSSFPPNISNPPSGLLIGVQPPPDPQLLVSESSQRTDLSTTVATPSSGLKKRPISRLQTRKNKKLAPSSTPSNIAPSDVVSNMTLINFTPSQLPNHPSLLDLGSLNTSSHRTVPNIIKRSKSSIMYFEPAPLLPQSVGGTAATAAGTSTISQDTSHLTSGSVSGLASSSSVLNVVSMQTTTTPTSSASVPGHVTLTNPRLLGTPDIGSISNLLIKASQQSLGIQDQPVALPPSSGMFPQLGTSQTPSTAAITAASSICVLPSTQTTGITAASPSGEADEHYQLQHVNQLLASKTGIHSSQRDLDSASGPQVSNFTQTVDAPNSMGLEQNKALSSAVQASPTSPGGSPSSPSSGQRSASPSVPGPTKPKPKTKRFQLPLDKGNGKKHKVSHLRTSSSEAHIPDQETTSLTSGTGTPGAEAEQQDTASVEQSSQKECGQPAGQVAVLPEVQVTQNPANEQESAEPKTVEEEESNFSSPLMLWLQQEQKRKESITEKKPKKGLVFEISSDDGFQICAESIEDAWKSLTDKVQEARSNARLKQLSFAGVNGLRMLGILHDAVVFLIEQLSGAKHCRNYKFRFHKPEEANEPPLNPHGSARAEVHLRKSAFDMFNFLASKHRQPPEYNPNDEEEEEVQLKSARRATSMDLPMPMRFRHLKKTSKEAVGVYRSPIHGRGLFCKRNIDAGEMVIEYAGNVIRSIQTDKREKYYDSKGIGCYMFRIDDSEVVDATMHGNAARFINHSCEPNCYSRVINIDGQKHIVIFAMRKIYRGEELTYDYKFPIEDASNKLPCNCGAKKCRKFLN

molecular target: Histone-lysine N-methyltransferase 2A (Homo sapiens) (UniProt Q03164); assay: qHTS Fluorescence Polarization Assay for Inhibitors of MLL CXXC domain - DNA interaction; conditions: MLL-CXXC / FITC-HOXA9 DNA fluorescence polarization; activity change, negative = inhibition: at 115 µM (top of the series)
In short: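 Purified MLL-CXXC (added from a 7 uM solution) was preincubated 5 min at ambient with pinned compounds in 50 mM Tris-HCl pH 7.5, 50 mM NaCl, 1 mM DTT, 0.05% BSA. Fluorescein-labeled HOX-A9 DNA (50 nM solution) followed, 30 min, then polarization read.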
Potency means the concentration at half of the fitted maximal effect.

Row | SMILES | activity change, negative = inhibition | Potency
1 | O=c1oc2ccccc2c2c1C1O[C@](c3ccsc3)(Cc3ccccc31)O2 | inactive: -7.95% [at 23 µM] | 
2 | Cc1cccc(N2CC(C(=O)Nc3nnc(SCc4cccnc4)s3)CC2=O)c1 (stereo not given) |  | inconclusive: 15.8 µM [fluorescent, side channel, partial curve]
3 | CCn1c(SCC(=O)N/N=C/C=C/c2ccccc2[N+](=O)[O-])nnc1-c1ccccc1 |  | inconclusive: 44.7 µM [inhibitor, single point]
4 | CC(C)N1CCc2c(sc(NC(=O)c3cc4cc([N+](=O)[O-])ccc4s3)c2C(N)=O)C1 |  | inconclusive: 15.8 µM [fluorescent, side channel, full curve, poor fit]
5 | Cc1ncc(CO)c(CNc2ccc(-c3nc4ccccc4[nH]3)cc2)c1O |  | inconclusive: 79.4 µM [quencher, side channel, single point]
6 | CSc1ncccc1C(=O)Nc1ccncc1 |  | inconclusive: 7.08 µM [inhibitor, partial curve]
7 | O=c1/c(=C/c2ccccn2)sc2nc3ccccc3n12 |  | inconclusive: 50.1 µM [inhibitor, partial curve]
8 | COc1ccc(N2C(=O)CSC2c2cccc(F)c2)cc1 (stereo not given) |  | inconclusive: 50.1 µM [quencher, side channel, single point]
9 | O=c1oc2ccc(Cl)cc2nc1/C=C(\O)c1cccs1 |  | inconclusive: 39.8 µM [fluorescent, single point]
10 | CSc1nc2ccc(NS(=O)(=O)c3c(Cl)cccc3Cl)cc2s1 |  | inconclusive: 8.91 µM [quencher, side channel, single point]
11 | Cc1ccc(-c2nc3ccccn3c2Nc2ccccc2)o1 | inactive: 8.76% | 
12 | N/C(=N\c1nc(C(F)(F)F)cc(=O)[nH]1)Nc1ccc(Cl)cc1 |  | inconclusive: 89.1 µM [quencher, side channel, single point]
13 | COc1cccc(OCC(=O)NNC(=O)C(=O)Nc2ccc(OC)cc2OC)c1 |  | inconclusive: 15.8 µM [fluorescent, side channel, single point]
14 | O=C(Nc1ccc(Nc2ccncc2)cc1)c1ccc(Nc2ccnc3ccc([N+](=O)[O-])cc23)cc1 |  | inconclusive: 5.62 µM [quencher, side channel, full curve]
15 | Cc1ccc(N2CC(C(=O)Nc3nnc(SCCC4OCCO4)s3)CC2=O)cc1 (stereo not given) |  | inconclusive: 6.31 µM [fluorescent, side channel, full curve]
16 | O=S(=O)(Nc1cc2nc3ccccc3nc2n1Cc1ccccc1)c1ccc(Cl)cc1 |  | inconclusive: 17.8 µM [fluorescent, side channel, partial curve]
17 | CN1CCN(C2=C(NS(=O)(=O)c3ccccc3)C(=O)c3ccccc3C2=O)CC1 | inactive: -6.58% | 
18 | O=C1/C(=C/c2ccc(O)c(O)c2)Oc2cc(O)ccc21 |  | inconclusive: 89.1 µM [fluorescent, side channel, single point]
19 | Nc1ncc(-c2ccccc2)c(-c2ccc(O)cc2O)n1 |  | inconclusive: 35.5 µM [fluorescent, side channel, partial curve]
20 | Fc1ccccc1/C=N/n1cc(-c2ccccc2)[nH]c1=S |  | inconclusive: 63.1 µM [inhibitor, single point]

Row | SMILES | activity change, negative = inhibition | Potency
21 | O=C(Nc1ccccc1Oc1cccnc1)C1CCCN(C/C=C/c2ccc(F)cc2)C1 (stereo not given) | inactive: -1.42% | 
22 | Cc1cc(=O)oc2cc(OCC(=O)NCCCN3CCOCC3)ccc12 | inactive: 5.95% | 
23 | O=C(Nc1ccc(F)cc1)c1ccc(-n2ccnc2)nc1 |  | inconclusive: 39.8 µM [fluorescent, side channel, single point]
24 | NC(=O)N/N=C/c1ccc(N2CCOCC2)s1 |  | inconclusive: 35.5 µM [fluorescent, partial curve]
25 | CCCCNc1c2c3c(cccc3n(C)c1=O)C(=O)c1ccccc1-2 |  | inconclusive: 3.98 µM [fluorescent, side channel, full curve]
26 | CCC(C)NC(=O)CNC(=S)N(Cc1ccc(F)cc1)C1CCCCC1 (stereo not given) |  | inconclusive: 1 µM [fluorescent, side channel, full curve, poor fit]
27 | CC(C)CNC(=O)C(=O)NCC1OCCCN1S(=O)(=O)c1cccs1 (stereo not given) |  | inconclusive: 10 µM [fluorescent, side channel, single point]
28 | C#CCOc1ccc(/C=C2/C(=O)NN(c3ccccc3)C2=O)cc1OC | inactive: 3.2% | 
29 | CC(C)n1c(O)c(N=NC(=O)Cn2ccc(C(F)(F)F)n2)c2ccccc21 |  | inconclusive: 44.7 µM [inhibitor, single point]
30 | CCSC1=N/C(=C\C=C2/Oc3ccccc3N2CC)C(=O)S1 |  | inconclusive: 39.8 µM [fluorescent, side channel, partial curve]
31 | O=C(Nc1nc2ccccc2n1CCN1CCCCC1)c1ccc(Cl)cc1 |  | inconclusive: 35.5 µM [inhibitor, single point]
32 | Cc1onc(-c2ccccc2Cl)c1C(=O)N/N=C(\N)COc1ccc(Cl)cc1 |  | inconclusive: 1.41 µM [quencher, side channel, partial curve, poor fit]
33 | CS(=O)(=O)c1ccc2c(c1)sc1nc(=O)c(/C=C3/C=CC(=O)C(O)=C3)c(N)n12 |  | inconclusive: 22.4 µM [fluorescent, side channel, partial curve]
34 | COc1ccccc1CNS(=O)(=O)c1ccc(-n2cnnn2)c(C)c1 |  | inconclusive: 63.1 µM [fluorescent, side channel, partial curve, poor fit]
35 | Cc1ccc(C)c(NC(=O)C(=O)NCCCN2CCOCC2)c1 |  | inconclusive: 31.6 µM [fluorescent, side channel, partial curve]
36 | CSCC[C@H](NC(=O)[C@H](Cc1ccccc1)n1c(=O)[nH]c2ccccc2c1=O)C(=O)N1CCC(C(=O)O)CC1 |  | inconclusive: 15.8 µM [fluorescent, side channel, single point]
37 | Cc1cc(=O)oc2c(CN3CCCC3)c(O)c(Cl)cc12 | inactive: -24.6% | 
38 | O=C1CCC(=O)N1c1ccc(-c2nc3ccccc3s2)cc1 |  | inconclusive: 31.6 µM [fluorescent, side channel, partial curve]
39 | COc1ccc(C(C(=O)NC2CCCC2)N(C(=O)c2ccco2)c2cc3c(cc2C(C)=O)OCO3)cc1OC (stereo not given) | inactive: 0.0891% | 
40 | COc1cc(SC#N)ccc1N=Cc1c(C)[nH]n(-c2ccc(C)c(C)c2)c1=O |  | inconclusive: 35.5 µM [fluorescent, side channel, partial curve]

Compounds listed so far that contain a nitro group on carbon:
Row | SMILES | activity change, negative = inhibition | Potency
3 | CCn1c(SCC(=O)N/N=C/C=C/c2ccccc2[N+](=O)[O-])nnc1-c1ccccc1 |  | inconclusive: 44.7 µM [inhibitor, single point]
4 | CC(C)N1CCc2c(sc(NC(=O)c3cc4cc([N+](=O)[O-])ccc4s3)c2C(N)=O)C1 |  | inconclusive: 15.8 µM [fluorescent, side channel, full curve, poor fit]
14 | O=C(Nc1ccc(Nc2ccncc2)cc1)c1ccc(Nc2ccnc3ccc([N+](=O)[O-])cc23)cc1 |  | inconclusive: 5.62 µM [quencher, side channel, full curve]

(further entries)

Row | SMILES | activity change, negative = inhibition | Potency
41 | CN(C)CCCN=c1cc(-c2ccccc2)oc2ccc(Cl)cc12 |  | inconclusive: 25.1 µM [quencher, side channel, partial curve]
42 | Cc1ccccc1CN(C)C(=O)CNC(=O)c1ccc2ccccc2c1 |  | inconclusive: 11.2 µM [inhibitor, single point]
43 | CC(=O)c1ccc(S(=O)(=O)NCCc2csc(-c3cccnc3)n2)cc1 |  | inconclusive: 7.94 µM [fluorescent, side channel, full curve]
44 | Cc1ccc(CCNC(=O)C2CC(=O)N(C3CCCCC3)C2)cc1 (stereo not given) |  | inconclusive: 11.2 µM [fluorescent, side channel, single point]
45 | CCN1CCN(C(=O)c2cc3ccc(OC)cc3[nH]2)CC1 |  | inconclusive: 35.5 µM [inhibitor, single point]
46 | CC1=C(C#N)C(=O)NC(=O)/C1=C\c1ccc(-c2cc(C)c(C)cc2[N+](=O)[O-])o1 |  | inconclusive: 89.1 µM [inhibitor, single point]
47 | NC(=O)OC[C@H](O)COc1ccc(Cl)cc1 | inactive: 0.995% [at 51.4 µM] | 
48 | CCN(CC)c1ccc(/C=c2\sc3nc4ccccc4n3c2=O)c(O)c1 |  | inconclusive: 28.2 µM [fluorescent, side channel, partial curve]
49 | Cc1nc(-c2cn[nH]c2)c2cc(C)oc2n1 | inactive: 10.2% | 
50 | COc1cc(NC(=O)C2C3C=CC(C3)C2C(=O)O)ccc1NC(=O)c1ccccc1 (stereo not given) |  | inconclusive: 14.1 µM [quencher, side channel, single point]
51 | CC(=O)C1=C(O)C(=O)N(c2cccc(Br)c2)C1c1ccc(Br)cc1 (stereo not given) |  | inconclusive: 14.1 µM [fluorescent, side channel, single point]
52 | Cc1cc(C)n(-c2nc3ccccc3[nH]c2=O)n1 |  | inconclusive: 39.8 µM [fluorescent, side channel, single point]
53 | CC(O)[C@@H](O)[C@H]1CNc2nc(N)[nH]c(=O)c2N1 (stereo not given in full) |  | inconclusive: 39.8 µM [inhibitor, partial curve, poor fit]
54 | CC(NC(=O)c1ccc(S(=O)(=O)N(C)C)cc1)c1ccc(-n2ccnc2)cc1 (stereo not given) | inactive: -2.11% | 
55 | CCOC(CNc1ncnc2c1cnn2C)OCC |  | inconclusive: 79.4 µM [inhibitor, single point]
56 | COc1ccc(-c2cnc3c(c2)CCC3(C#N)C#N)cc1 | inactive: -3.93% | 
57 | CCCCN(CCCC)/C(N)=N/c1nc(C)cc(C)n1 |  | inconclusive: 35.5 µM [inhibitor, single point]
58 | O=C(O)C1=C[C@@H](c2ccccc2)C[C@@H](OCc2ccc(CO)cc2)O1 |  | inconclusive: 63.1 µM [inhibitor, single point]
59 | O=C(c1ccc2ccccc2c1)N1CCN(S(=O)(=O)/C=C/c2ccccc2)CC1 | inactive: 3.58% | 
60 | COc1ccc(-n2c(C)cc(C(=O)CN3C(=O)C(=O)N(Cc4ccccc4)C3=O)c2C)cc1 |  | inconclusive: 28.2 µM [fluorescent, side channel, partial curve, poor fit]
